{"source": "patent US20120282187A1", "about": "(BOEHRINGER INGELHEIM INTERNATIONAL GMBH, priority 2008, published 2012)", "origin": "cited, not measured here", "key": {"AF patients [1]": {"system": "AF patients", "conditions": "SPORTIF III, cited from earlier work"}, "AF patients [2]": {"system": "AF patients", "conditions": "SPORTIF V, cited from earlier work"}, "[3]": {"conditions": "ximelagatran 36 mg b.i.d. vs warfarin"}}, "note": "Where two headings read alike, the source gives them in different places. For at least one compound, name, drawing or mass did not settle the structure."}
{"smiles": "CCOC(=O)CN[C@@H](C(=O)N1CC[C@H]1C(=O)NCc1ccc(/C(N)=N\\O)cc1)C1CCCCC1", "note": "[ximelagatran]", "values": [{"measurement": "Myocardial Infarction", "setting": "AF patients [1]; Warfarin vs. Ximelagatran", "result": 1.1, "unit": "%"}, {"measurement": "Stroke and systemic embolism (per 100 patient years)", "setting": "AF patients [1]; [3]", "result": 1.6, "unit": "%"}, {"measurement": "Myocardial Infarction", "setting": "AF patients [2]; Warfarin vs. Ximelagatran", "result": 1.0, "unit": "%"}, {"measurement": "Stroke and systemic embolism (per 100 patient years)", "setting": "AF patients [2]; [3]", "result": 1.6, "unit": "%"}]}
